Measurements reported in PubChem BioAssay AID1259405 (NCATS, 2018).
Assay: 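Silenced genes that increase secreted GFP made by CHO cells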 (primary screen). Cells: Chinese hamster CHO-K1 ovary cells with stable secreted eGFP expression. Knock-down reagent: single siRNA against mouse genes, 0.8 pmol siRNA per well (2 µl of 400 nM stock). Timing: 3 days. Measured: 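Per-well intracellular GFP measured by laser scanning cytometry, plus viability from ATP luminescence, each relative to plate median of non-targeting control wells, in %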. Direction: GFP, % of control: higher = more GFP per well, higher productivity; viability (ATP), % of control: higher = more viable cells (more ATP). Call rule: 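a knock-down is called active if GFP reaches 120% or more of non-targeting control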.
The whole screen tested about 50,000 reagents; this is a random part of them. About 4,000 of all reagents (8%) count as active. 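Mouse siRNA library applied to hamster cells; one well for each siRNA.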 A number with no mark means an inactive call. No sequences are given here.

The first 12 entries as a preview:
| Gene | PubChem SID | GFP, % of control | viability (ATP), % of control |
| --- | --- | --- | --- |
| Igfbp1 (GeneID 16006) | SID363540292 | 79 | 83.5 |
| Igfbp1 (GeneID 16006) | SID363542044 | 99 | 98.2 |
| Igfbp1 (GeneID 16006) | SID363566960 | 40.1 | 51.3 |
| Commd10 (GeneID 69456) | SID363550333 | 58.5 | 76.4 |
| Commd10 (GeneID 69456) | SID363564842 | 67.7 | 71.7 |
| Commd10 (GeneID 69456) | SID363588387 | 92.2 | 136 |
| Ppp6c (GeneID 67857) | SID363581845 | 71.2 | 86.7 |
| Ppp6c (GeneID 67857) | SID363589339 | 85.1 | 80.5 |
| Or5w15 (GeneID 258632) | SID363544384 | 41.7 | 59.1 |
| Or5w15 (GeneID 258632) | SID363550712 | 79.7 | 73.3 |
| Or5w15 (GeneID 258632) | SID363557261 | 119 | 83.2 |
| Pramel32 (GeneID 381590) | SID363550134 | 81.9 | 91.3 |

Results, from the start:
| Gene | PubChem SID | GFP, % of control | viability (ATP), % of control |
| --- | --- | --- | --- |
| Igfbp1 (GeneID 16006) | SID363540292 | 79 | 83.5 |
| Igfbp1 (GeneID 16006) | SID363542044 | 99 | 98.2 |
| Igfbp1 (GeneID 16006) | SID363566960 | 40.1 | 51.3 |
| Commd10 (GeneID 69456) | SID363550333 | 58.5 | 76.4 |
| Commd10 (GeneID 69456) | SID363564842 | 67.7 | 71.7 |
| Commd10 (GeneID 69456) | SID363588387 | 92.2 | 136 |
| Ppp6c (GeneID 67857) | SID363581845 | 71.2 | 86.7 |
| Ppp6c (GeneID 67857) | SID363589339 | 85.1 | 80.5 |
| Or5w15 (GeneID 258632) | SID363544384 | 41.7 | 59.1 |
| Or5w15 (GeneID 258632) | SID363550712 | 79.7 | 73.3 |
| Or5w15 (GeneID 258632) | SID363557261 | 119 | 83.2 |
| Pramel32 (GeneID 381590) | SID363550134 | 81.9 | 91.3 |
| Pramel32 (GeneID 381590) | SID363564643 | 86.6 | 80.3 |
| Pramel32 (GeneID 381590) | SID363588188 | 134 (active) | 126 |
| Mms22l (GeneID 212377) | SID363539855 | 58.7 | 51.3 |
| Mms22l (GeneID 212377) | SID363561156 | 42.9 | 53.6 |
| Mms22l (GeneID 212377) | SID363564192 | 137 (active) | 56.9 |
| Mmp7 (GeneID 17393) | SID363582447 | 118 | 140 |
| Mmp7 (GeneID 17393) | SID363584207 | 71.8 | 74 |
| Lmbrd1 (GeneID 68421) | SID363540653 | 122 (active) | 107 |
| Lmbrd1 (GeneID 68421) | SID363543104 | 67.1 | 53.8 |
| Lmbrd1 (GeneID 68421) | SID363552597 | 74.7 | 79.3 |
| Psmd8 (GeneID 57296) | SID363554062 | 70 | 102 |
| Psmd8 (GeneID 57296) | SID363562019 | 20.5 | 4.76 |
| Psmd8 (GeneID 57296) | SID363565757 | 11.2 | 8.03 |
| Fbxw5 (GeneID 30839) | SID363540070 | 54.9 | 76.3 |
| Fbxw5 (GeneID 30839) | SID363561371 | 134 (active) | 89.6 |
| Fbxw5 (GeneID 30839) | SID363564407 | 136 (active) | 72.2 |
| Lhfpl5 (GeneID 328789) | SID363556211 | 69.3 | 54.8 |
| Lhfpl5 (GeneID 328789) | SID363586661 | 73.5 | 93 |
| Lhfpl5 (GeneID 328789) | SID363588769 | 147 (active) | 135 |
| Fcna (GeneID 14133) | SID363553664 | 93.1 | 59.1 |
| Fcna (GeneID 14133) | SID363561621 | 86.9 | 78.6 |
| Fcna (GeneID 14133) | SID363565359 | 120 (active) | 94.6 |
| Scrn2 (GeneID 217140) | SID363555071 | 111 | 106 |
| Scrn2 (GeneID 217140) | SID363568518 | 39.8 | 59.2 |
| Scrn2 (GeneID 217140) | SID363586577 | 70.8 | 83.7 |
| Cox6b1 (GeneID 110323) | SID363568939 | 102 | 64.7 |
| Cox6b1 (GeneID 110323) | SID363576331 | 86.3 | 48.8 |
| Cox6b1 (GeneID 110323) | SID363579147 | 64.8 | 60.8 |
| Lfng (GeneID 16848) | SID363541272 | 73 | 64.1 |
| Lfng (GeneID 16848) | SID363555899 | 51.4 | 52.1 |
| Lfng (GeneID 16848) | SID363566188 | 93.8 | 71.5 |
| Rtf2 (GeneID 66404) | SID363543914 | 60.4 | 65 |
| Rtf2 (GeneID 66404) | SID363551650 | 70.8 | 69.6 |
| Rtf2 (GeneID 66404) | SID363559255 | 82.1 | 70.3 |
| Ripor1 (GeneID 75687) | SID363543478 | 122 (active) | 109 |
| Ripor1 (GeneID 75687) | SID363552971 | 113 | 80.2 |
| Ripor1 (GeneID 75687) | SID363558819 | 116 | 105 |
| A930104D05Rik (GeneID 320600) | SID363542883 | 53.8 | 45.4 |
| A930104D05Rik (GeneID 320600) | SID363546400 | 34.2 | 22 |
| A930104D05Rik (GeneID 320600) | SID363548156 | 80.5 | 87.6 |
| Tmcc3 (GeneID 319880) | SID363550321 | 63.7 | 86.7 |
| Tmcc3 (GeneID 319880) | SID363564830 | 78.2 | 71.2 |
| Tmcc3 (GeneID 319880) | SID363588375 | 71.8 | 95.1 |
| Nxf7 (GeneID 170722) | SID363545910 | 51.4 | 65.1 |
| Nxf7 (GeneID 170722) | SID363549423 | 74 | 51 |
| Nxf7 (GeneID 170722) | SID363563229 | 134 (active) | 81.8 |
| Sgcb (GeneID 24051) | SID363554927 | 78.3 | 91 |
| Sgcb (GeneID 24051) | SID363568374 | 71.1 | 83.9 |
| Sgcb (GeneID 24051) | SID363586433 | 77.9 | 72.1 |
| Ess2 (GeneID 27886) | SID363540104 | 64.6 | 70.5 |
| Ess2 (GeneID 27886) | SID363561405 | 103 | 69.7 |
| Ess2 (GeneID 27886) | SID363564441 | 125 (active) | 74.6 |
| Tmx2 (GeneID 66958) | SID363569129 | 61.1 | 64.1 |
| Tmx2 (GeneID 66958) | SID363583561 | 91.6 | 96.6 |
| Rufy2 (GeneID 70432) | SID363554934 | 63.1 | 72.2 |
| Rufy2 (GeneID 70432) | SID363568381 | 171 (active) | 84.2 |
| Rufy2 (GeneID 70432) | SID363586440 | 68.5 | 76.9 |
| Umps (GeneID 22247) | SID363573129 | 65.8 | 53.1 |
| Umps (GeneID 22247) | SID363577705 | 121 (active) | 120 |
| Umps (GeneID 22247) | SID363581225 | 76 | 80.9 |
| Rap2b (GeneID 74012) | SID363570126 | 81.1 | 93.6 |
| Rap2b (GeneID 74012) | SID363576462 | 76.6 | 68.2 |
| Rap2b (GeneID 74012) | SID363579630 | 94.8 | 95.4 |
| Lrwd1 (GeneID 71735) | SID363540835 | 64.4 | 83.1 |
| Lrwd1 (GeneID 71735) | SID363543286 | 63.8 | 71 |
| Lrwd1 (GeneID 71735) | SID363552779 | 97.6 | 101 |
| Kcnh7 (GeneID 170738) | SID363574843 | 101 | 87.8 |
| Kcnh7 (GeneID 170738) | SID363575899 | 99.9 | 108 |
| Kcnh7 (GeneID 170738) | SID363580475 | 85 | 84 |
| Or8g36 (GeneID 258740) | SID363554784 | 73 | 47.1 |
| Or8g36 (GeneID 258740) | SID363568231 | 58.5 | 48.2 |
| Or8g36 (GeneID 258740) | SID363586290 | 55.2 | 70.8 |
| Hr (GeneID 15460) | SID363573724 | 98.3 | 84.7 |
| Hr (GeneID 15460) | SID363581468 | 74.9 | 84.5 |
| Hr (GeneID 15460) | SID363583932 | 82.6 | 99 |
| Alkbh2 (GeneID 231642) | SID363546774 | 34 | 49.2 |
| Alkbh2 (GeneID 231642) | SID363548530 | 37 | 62.1 |
| Alkbh2 (GeneID 231642) | SID363560708 | 88 | 91 |
| Serpinb6c (GeneID 97848) | SID363555432 | 70.6 | 52.4 |
| Serpinb6c (GeneID 97848) | SID363564093 | 79.1 | 65.2 |
| Serpinb6c (GeneID 97848) | SID363587639 | 106 | 103 |
| Klk1 (GeneID 16612) | SID363547397 | 88.6 | 76.8 |
| Klk1 (GeneID 16612) | SID363558166 | 122 (active) | 74.1 |
| Klk1 (GeneID 16612) | SID363559924 | 78.9 | 85.9 |
| Eif2ak3 (GeneID 13666) | SID363570978 | 79.7 | 83.1 |
| Cndp2 (GeneID 66054) | SID363574581 | 59.8 | 86.9 |
| Cndp2 (GeneID 66054) | SID363575637 | 41.8 | 39.5 |
| Cndp2 (GeneID 66054) | SID363580213 | 62.6 | 69.6 |
| Ints1 (GeneID 68510) | SID363540811 | 74.7 | 92.7 |
| Ints1 (GeneID 68510) | SID363543262 | 128 (active) | 69.6 |
| Ints1 (GeneID 68510) | SID363552755 | 58 | 72.3 |
| Or1f12 (GeneID 258280) | SID363554441 | 54.1 | 53.2 |
| Or1f12 (GeneID 258280) | SID363567888 | 42.6 | 40.6 |
| Or1f12 (GeneID 258280) | SID363585245 | 69.4 | 65.4 |
| Gria1 (GeneID 14799) | SID363574341 | 67.5 | 95.2 |
| Gria1 (GeneID 14799) | SID363575397 | 50.5 | 42 |
| Gria1 (GeneID 14799) | SID363579973 | 63.9 | 57.9 |
